{
  "source": "patent EP0366451A2",
  "about": "“The use of oxidized polyamines, especially NN'-Bis-(3-propionaldehyde)-1-4-diaminobutane (sperminedialdehyde) as immunosuppressive agents” (ORTHO PHARMACEUTICAL CORPORATION, priority 1988, dated 1990)",
  "key": {"cytosolic ALDH": {"test_system": "cytosolic ALDH", "experiment": "NAD-linked cytosolic ALDH assay, L1210/CPA cells", "type": "biochemical, Murine", "conditions": "SDA (1.0 mM) as substrate; pretreated with inhibitor 5 min at 37°C; read-out: Inhibition (IC₅₀)", "protocol": "Cultured murine leukemic cells and livers (excised from mice immediately after cervical dislocation) were homogenized in 3 volumes of ice-cold 1.15% KCl and 1 mM EDTA. The homogenate was centrifuged at 100,000 g for 45 min and the resulting supernatant was used to measure cytosolic ALDH activity. For particulate ALDH assay, the pellet (and homogenate for total ALDH) was resuspended in homogenizing buffer and treated with 0.25% Triton X-100 for 30 min at 4°C. The solubilized preparations were centrifuged at 48,000 g for 30 min and the supernatants were drawn off for ALDH determinations.\nALDH activity was measured by monitoring the reduction of NAD or NADp for 5-6 min at […] at 37°C in DU70 spectrophotometer (Beckman). The assay mixture contained 50 mM potassium phosphate buffer, pH 7.4, 2.0 mM NAD (or NADP) and 1.0 mM EDTA. The reaction was started by adding the substrate (SDA or other aldehyde) to the prewarmed (5 min at 37°C) assay mixture containing enzyme preparation. Pyrazole (0.1 mM) was added particularly for liver enzyme, to inhibit alcohol dehydrogenase. The apparent Km and maximum velocity (Vmax) values were calculated using a Lineweaver-Burk plot based on the estimation of the slope by regression analysis. Enzyme activity was expressed as mU (nmoles/min) per mg of protein. Protein contents were determined by the Bradford method, using bovine serum albumin as the standard."}, "[1]": {"target": "T1, S-Adenosylmethionine Decarboxylase (AdoMet DC) (Mus musculus, UniProt P0DMN7)", "T1 construct": "endogenous in cells; host or cells: murine leukemic L1210 cells (supernatant)", "T1 sequence (P0DMN7 68-334 limits assumed)": "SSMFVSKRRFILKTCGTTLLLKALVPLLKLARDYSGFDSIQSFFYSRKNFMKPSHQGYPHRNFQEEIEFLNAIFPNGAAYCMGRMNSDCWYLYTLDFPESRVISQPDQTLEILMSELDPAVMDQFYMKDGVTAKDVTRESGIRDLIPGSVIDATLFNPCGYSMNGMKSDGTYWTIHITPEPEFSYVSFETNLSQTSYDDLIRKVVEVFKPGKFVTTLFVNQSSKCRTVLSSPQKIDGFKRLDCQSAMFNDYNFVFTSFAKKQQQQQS", "T1 sequence (P0DMN7 1-67 limits assumed)": "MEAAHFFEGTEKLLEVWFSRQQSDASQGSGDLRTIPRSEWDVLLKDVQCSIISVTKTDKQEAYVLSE", "experiment": "AdoMet DC inhibition in L1210 cell supernatants ([14C]CO2 release)", "type": "biochemical, Murine", "conditions": "grade symbols, key not given", "protocol": "Murine leukemic L1210 cell supernatants were incubated with different concentrations of SDA or butyl dialdehyde, and AdoMet DC activity was estimated by monitoring the release of [¹⁴C] CO₂. Inhibition curves for both drugs were superimposable with IC₅₀ values of 0.12-0.13 x 10⁻³ M."}, "Ornithine decarboxylase": {"target": "T2, Ornithine decarboxylase (Mus musculus, UniProt P00860)", "T2 sequence (P00860 1-461)": "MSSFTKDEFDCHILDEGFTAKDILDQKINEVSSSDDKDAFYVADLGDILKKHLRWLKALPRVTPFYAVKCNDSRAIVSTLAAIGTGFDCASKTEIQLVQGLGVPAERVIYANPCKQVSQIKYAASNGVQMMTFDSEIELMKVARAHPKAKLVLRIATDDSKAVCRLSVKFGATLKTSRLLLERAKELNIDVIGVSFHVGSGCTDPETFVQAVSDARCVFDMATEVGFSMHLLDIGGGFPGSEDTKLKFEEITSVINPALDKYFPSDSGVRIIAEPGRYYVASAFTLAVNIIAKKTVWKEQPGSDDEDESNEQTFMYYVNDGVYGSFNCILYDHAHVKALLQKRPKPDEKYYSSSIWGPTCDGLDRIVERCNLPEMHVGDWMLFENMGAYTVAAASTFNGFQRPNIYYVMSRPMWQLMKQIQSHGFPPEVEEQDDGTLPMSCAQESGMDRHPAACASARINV", "experiment": "Ornithine decarboxylase inhibition", "type": "biochemical", "design": "key to the marks not given beside the values", "conditions": "grade symbols, key not given"}, "Acid phosphatase": {"test_system": "Acid phosphatase", "experiment": "Acid phosphatase inhibition (unrelated pathway)", "type": "biochemical", "conditions": "grade symbols, key not given"}},
  "note": "“And” between values parts separate entries of the source, which are not always exact repeats. Identical values can stand only once. For at least one compound, name, drawing or mass did not settle the structure.",
  "data": [
    {"smiles": "CCN(CC)c1ccc(C=O)cc1", "note": "[DEAB, Diethyl aminobenzaldehyde]", "values": [
      {"measurement": "IC50", "setting": "cytosolic ALDH", "value": "55 nM and 55.5 nM"}
    ]},
    {"smiles": "CCNCCCNCCCCNCCCNCC", "note": "[Bis (ethyl) Spermine, bis (ethyl) spermine]", "values": [
      {"measurement": "AdoMet decarboxylase", "setting": "[1]", "value": "-"},
      {"measurement": "Ornithine decarboxylase", "setting": "Ornithine decarboxylase", "value": "++++"},
      {"measurement": "Acid phosphatase", "setting": "Acid phosphatase", "value": "-"}
    ]}
  ]
}
